This passage reports binding results from paper PMC12170886, “CHD8 interacts with BCL11A to induce oncogenic transcription in triple negative breast cancer” (The EMBO Journal, 2025).

Amino acid sequences for entries named in this document (tags omitted).
UniProt Q9H165: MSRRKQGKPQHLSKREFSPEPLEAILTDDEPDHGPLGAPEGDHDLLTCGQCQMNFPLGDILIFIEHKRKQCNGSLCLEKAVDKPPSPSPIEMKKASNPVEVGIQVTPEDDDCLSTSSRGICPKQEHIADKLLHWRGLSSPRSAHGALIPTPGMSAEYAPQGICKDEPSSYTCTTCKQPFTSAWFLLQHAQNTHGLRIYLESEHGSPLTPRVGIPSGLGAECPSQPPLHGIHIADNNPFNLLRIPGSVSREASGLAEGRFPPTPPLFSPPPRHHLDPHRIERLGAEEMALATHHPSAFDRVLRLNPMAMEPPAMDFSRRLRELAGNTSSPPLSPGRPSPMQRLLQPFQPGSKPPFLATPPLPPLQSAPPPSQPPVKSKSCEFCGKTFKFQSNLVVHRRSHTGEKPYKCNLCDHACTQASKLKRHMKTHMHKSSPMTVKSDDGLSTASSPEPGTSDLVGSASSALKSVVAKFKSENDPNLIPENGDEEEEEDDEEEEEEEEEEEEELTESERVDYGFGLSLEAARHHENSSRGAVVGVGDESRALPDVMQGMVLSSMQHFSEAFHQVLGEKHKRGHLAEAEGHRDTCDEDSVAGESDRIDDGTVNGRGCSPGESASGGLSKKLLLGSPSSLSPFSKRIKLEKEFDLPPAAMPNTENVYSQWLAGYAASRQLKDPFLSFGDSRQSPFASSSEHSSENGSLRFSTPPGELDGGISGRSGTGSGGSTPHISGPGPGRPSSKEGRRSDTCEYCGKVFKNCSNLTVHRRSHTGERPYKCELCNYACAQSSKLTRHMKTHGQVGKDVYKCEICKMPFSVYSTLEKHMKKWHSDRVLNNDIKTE
UniProt Q9QYE3: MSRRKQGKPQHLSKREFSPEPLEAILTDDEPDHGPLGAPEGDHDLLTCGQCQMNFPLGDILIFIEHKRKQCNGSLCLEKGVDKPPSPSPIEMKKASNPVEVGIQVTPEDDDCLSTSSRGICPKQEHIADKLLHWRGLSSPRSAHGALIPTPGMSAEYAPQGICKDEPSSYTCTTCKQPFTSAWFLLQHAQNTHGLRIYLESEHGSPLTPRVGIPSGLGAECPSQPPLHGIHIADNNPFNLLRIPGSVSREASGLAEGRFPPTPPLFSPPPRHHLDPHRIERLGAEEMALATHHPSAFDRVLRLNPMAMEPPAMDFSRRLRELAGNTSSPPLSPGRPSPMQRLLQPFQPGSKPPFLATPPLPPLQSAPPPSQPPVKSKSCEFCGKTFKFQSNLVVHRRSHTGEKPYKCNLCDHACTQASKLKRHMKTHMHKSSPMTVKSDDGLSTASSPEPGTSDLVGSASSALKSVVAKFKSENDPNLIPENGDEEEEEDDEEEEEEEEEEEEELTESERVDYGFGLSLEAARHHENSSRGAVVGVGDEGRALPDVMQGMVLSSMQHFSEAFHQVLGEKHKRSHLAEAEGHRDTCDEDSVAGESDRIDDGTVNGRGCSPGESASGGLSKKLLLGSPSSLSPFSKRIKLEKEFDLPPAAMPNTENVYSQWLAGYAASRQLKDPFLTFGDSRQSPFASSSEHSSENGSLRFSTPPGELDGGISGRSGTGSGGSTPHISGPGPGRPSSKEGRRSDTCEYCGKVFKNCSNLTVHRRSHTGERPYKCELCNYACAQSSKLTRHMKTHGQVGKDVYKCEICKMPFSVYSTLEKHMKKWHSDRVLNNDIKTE
UniProt Q09XV5: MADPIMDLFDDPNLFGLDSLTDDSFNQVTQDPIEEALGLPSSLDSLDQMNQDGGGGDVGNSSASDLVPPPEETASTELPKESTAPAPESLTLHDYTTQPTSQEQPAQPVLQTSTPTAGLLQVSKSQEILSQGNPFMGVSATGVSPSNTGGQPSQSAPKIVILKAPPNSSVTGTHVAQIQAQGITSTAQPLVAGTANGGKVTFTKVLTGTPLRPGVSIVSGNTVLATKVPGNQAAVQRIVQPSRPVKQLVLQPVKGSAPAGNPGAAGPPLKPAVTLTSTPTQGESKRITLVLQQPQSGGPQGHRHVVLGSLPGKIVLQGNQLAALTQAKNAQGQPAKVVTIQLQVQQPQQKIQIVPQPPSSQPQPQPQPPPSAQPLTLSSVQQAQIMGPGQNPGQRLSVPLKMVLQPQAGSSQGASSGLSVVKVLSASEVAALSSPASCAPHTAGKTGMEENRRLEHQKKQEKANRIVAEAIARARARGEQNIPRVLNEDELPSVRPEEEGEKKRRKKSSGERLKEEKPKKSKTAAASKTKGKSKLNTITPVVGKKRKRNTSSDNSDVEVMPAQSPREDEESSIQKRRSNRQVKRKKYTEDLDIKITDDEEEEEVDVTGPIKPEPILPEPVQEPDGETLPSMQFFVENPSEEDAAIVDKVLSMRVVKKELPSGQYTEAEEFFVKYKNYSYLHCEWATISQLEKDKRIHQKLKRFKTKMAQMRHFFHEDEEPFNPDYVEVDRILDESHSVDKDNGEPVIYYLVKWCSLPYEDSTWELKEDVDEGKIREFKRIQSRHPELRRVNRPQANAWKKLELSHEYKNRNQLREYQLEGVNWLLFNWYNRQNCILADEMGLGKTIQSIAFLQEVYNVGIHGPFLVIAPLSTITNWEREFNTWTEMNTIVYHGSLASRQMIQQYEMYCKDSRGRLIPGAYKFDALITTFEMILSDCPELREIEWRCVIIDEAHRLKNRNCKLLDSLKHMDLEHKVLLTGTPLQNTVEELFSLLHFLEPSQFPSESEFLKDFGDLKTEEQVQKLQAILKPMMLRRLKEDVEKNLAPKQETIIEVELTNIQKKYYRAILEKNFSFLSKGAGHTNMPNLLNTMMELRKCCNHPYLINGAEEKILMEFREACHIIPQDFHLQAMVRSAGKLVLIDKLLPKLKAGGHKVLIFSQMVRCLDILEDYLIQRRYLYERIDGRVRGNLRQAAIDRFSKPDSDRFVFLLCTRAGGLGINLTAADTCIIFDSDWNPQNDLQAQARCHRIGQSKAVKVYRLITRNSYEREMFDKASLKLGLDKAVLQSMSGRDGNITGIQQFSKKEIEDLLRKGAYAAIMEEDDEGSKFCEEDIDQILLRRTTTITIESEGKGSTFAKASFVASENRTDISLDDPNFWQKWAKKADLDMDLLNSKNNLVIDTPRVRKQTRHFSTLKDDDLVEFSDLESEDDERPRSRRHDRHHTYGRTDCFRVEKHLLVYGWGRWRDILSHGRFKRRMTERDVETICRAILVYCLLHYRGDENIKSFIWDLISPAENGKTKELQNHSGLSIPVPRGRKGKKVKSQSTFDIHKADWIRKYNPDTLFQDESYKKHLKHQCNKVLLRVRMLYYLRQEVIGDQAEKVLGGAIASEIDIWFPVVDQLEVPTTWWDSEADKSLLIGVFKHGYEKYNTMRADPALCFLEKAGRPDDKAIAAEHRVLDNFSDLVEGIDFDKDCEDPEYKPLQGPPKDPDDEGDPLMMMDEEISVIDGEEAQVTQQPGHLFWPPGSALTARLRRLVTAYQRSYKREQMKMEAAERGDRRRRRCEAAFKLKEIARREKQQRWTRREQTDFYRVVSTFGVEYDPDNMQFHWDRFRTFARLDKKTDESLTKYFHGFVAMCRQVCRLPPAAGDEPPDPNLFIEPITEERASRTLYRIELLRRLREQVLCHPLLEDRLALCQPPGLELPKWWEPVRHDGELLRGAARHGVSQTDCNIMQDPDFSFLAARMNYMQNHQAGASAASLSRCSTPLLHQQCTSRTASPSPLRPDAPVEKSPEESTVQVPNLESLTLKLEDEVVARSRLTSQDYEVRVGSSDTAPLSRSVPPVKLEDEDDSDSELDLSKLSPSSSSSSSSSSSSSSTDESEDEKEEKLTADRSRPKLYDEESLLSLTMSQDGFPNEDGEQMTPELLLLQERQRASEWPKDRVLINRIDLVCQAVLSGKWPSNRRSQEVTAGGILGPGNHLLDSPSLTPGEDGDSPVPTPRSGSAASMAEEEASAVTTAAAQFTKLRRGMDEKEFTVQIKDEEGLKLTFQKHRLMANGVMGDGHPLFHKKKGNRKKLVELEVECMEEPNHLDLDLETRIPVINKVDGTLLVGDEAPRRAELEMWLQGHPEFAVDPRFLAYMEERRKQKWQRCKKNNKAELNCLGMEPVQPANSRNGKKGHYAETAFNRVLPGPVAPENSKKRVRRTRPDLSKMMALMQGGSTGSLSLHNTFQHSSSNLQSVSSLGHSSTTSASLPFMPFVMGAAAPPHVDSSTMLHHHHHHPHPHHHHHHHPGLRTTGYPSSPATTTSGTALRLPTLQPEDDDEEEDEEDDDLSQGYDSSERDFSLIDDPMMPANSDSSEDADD

Results are given in words; binding and its absence hold for the method and conditions named. Binding seen in cells or lysates may run through a third protein. Here binding means that the protein was enriched with, or labelled near, the bait; the list need not be complete. For some of these results: A no says only that the protein was not detected with the bait.

Experiment [1] has as its target BCL11A (endogenous, human TNBC samples) (human (endogenous in MDA-MB-231 and patient-derived xenografts)) (UniProt Q9H165). As to the kind of experiment: affinity purification with mass spectrometry; RIME: TNBC samples (MDA-MB-231, 4T1, PDX) cross-linked with 1% formaldehyde, nuclear fraction sonicated, IP with anti-BCL11A (Bethyl A300-382A) on Protein G magnetic beads overnight at 4 °C, RIPA washes, on-bead trypsin digest, LC-MS/MS; IgG control.

For experiment [2], the target named is Bcl11a (endogenous, mouse) (mouse (endogenous in 4T1, primary B-cells, brain, spleen)) (UniProt Q9QYE3). Described as above.
For experiment [3] the target is unchanged. Put plainly: affinity purification with mass spectrometry; RIME as for the TNBC samples, on primary B-cells of C57BL/6 mice; IP with anti-BCL11A.
Experiment [4] has the same target. Put plainly: condition: only in wild-type female mouse brain tissue; affinity purification with mass spectrometry; BCL11A RIME on wild-type female mouse brain tissue.

“CHD8 (endogenous, human TNBC samples) (from UniProt Q9HCK8 1-2581)”: the binding result in experiment [1] is listed as “binds”.

For “Chd8 (endogenous, mouse) (from UniProt Q09XV5 1-2582)”, the binding result is on record as “binds” in experiment [2], “no binding (only in primary mouse B-cells)” in experiment [3] and “no binding” in experiment [4].
